The exact form of at least one protein or probe is not confirmed. A weaker result is weaker than the reference pair of the same experiment. Protein sequences can lack the tags named with them.
Biological target: T1, HY5 (LONG HYPOCOTYL 5) (Solanum lycopersicum) (UniProt Q9SM50)
T1 sequence (looked up): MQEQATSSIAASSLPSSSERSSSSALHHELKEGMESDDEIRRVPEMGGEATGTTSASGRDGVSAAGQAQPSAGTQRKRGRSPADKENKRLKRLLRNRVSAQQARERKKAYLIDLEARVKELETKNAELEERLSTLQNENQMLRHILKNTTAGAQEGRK
Assay: EMSA
Settings: 250 uM GSNO; LightShift Chemiluminescent EMSA Kit, 20 min at room temperature, 6% native polyacrylamide gel; salt and pH not stated; recombinant protein; residues 1-158; protein details: His (pET-32a fusion); label: biotin 3' end

Does “CAAAATGCAACACGTGATGTATGAAT (double strand) [PORC-wt probe]” bind?
Result: binds more weakly

Does “CTGTGATTTACACGTGTCCTCTTTAT (double strand) [PSY2-wt probe]” bind?
Result: binds more weakly

Reference: PMC9181159, “High Nitric Oxide Concentration Inhibits Photosynthetic Pigment Biosynthesis by Promoting the Degradation of Transcription Factor HY5 in Tomato”
